## Library screening results

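Viability assay of Plasmodium falciparum sporozoites; the read-out is not stated. The concentration is filed as 10 mM, unlikely as a test dose, so the dose is not known. The record gives no direction; compounds that gave an IC50 in retests scored well above the rest, so higher reads as lower viability. Strong results were mostly tested again. Size under these conditions: about 34,000 compounds, about 280 of them at 50% or above in at least one test.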

Each number is a percent effect as filed. The controls that fix the scale are not given in the record; negative values are as filed. Compounds were drawn at random from those tested, without regard to their results. Two or more numbers in one place are separate tests of the same structure; such repeats can differ widely.

{"structure": "CC(C)N(C(=O)Cn1nnnc1CCc1ccccc1)C(C)C", "Percent Effect": -3.509}
{"structure": "Cc1noc(C)c1CN1CCOC(CNc2cccnn2)C1", "stereo": "centres undefined", "Percent Effect": -115.8}
{"structure": "COc1c(CNCc2ccnc(N3CCOCC3)c2)c(C)nn1C", "Percent Effect": -0.5384}
{"structure": "CC(C)(C)C(=O)N1CCCC(c2ncncc2-c2ccncc2)C1", "stereo": "centres undefined", "Percent Effect": 6.042}
{"structure": "Cc1cc(C(=O)N2CCCC(c3cc(=O)nc4n3CCC4)C2)on1", "stereo": "centres undefined", "Percent Effect": 7.483}
{"structure": "Cc1nc(N(C)C)nc2c1COCC21CCN(C(=O)NCC(C)C)C1", "stereo": "centres undefined", "Percent Effect": 9.579}
{"structure": "[H][C@@]12C[C@@H](Oc3ccccc3)C[C@]1([H])CN(Cc1cnccn1)C2", "Percent Effect": 4.269}
{"structure": "CC1CCCN(Cc2ccc(OCc3nccn3C)cc2)C1", "stereo": "centres undefined", "Percent Effect": 3.578}
{"structure": "CC(C#N)CNS(=O)(=O)c1ccc(F)c(Br)c1", "stereo": "centres undefined", "Percent Effect": -13.06}
{"structure": "COCCNC(=O)c1cc(S(=O)(=O)N2CCCCCC2)cs1", "Percent Effect": 7.595}
{"structure": "COC(=O)CCC(=O)N1CCC2(CN(Cc3cccc(F)c3)C2)C1", "Percent Effect": 5.736}
{"structure": "CC(=O)N1CCN(CCOc2ccc(F)cc2)CC(C(N)=O)C1", "stereo": "centres undefined", "Percent Effect": -1.402}
{"structure": "COc1ccc(NC(=O)CSc2ccc3nncn3n2)c(OC)c1", "Percent Effect": -8.333}
{"structure": "Cc1cc(NC(=O)NCc2cccnc2OC2CCCC2)n(C)n1", "Percent Effect": -1.144}
{"structure": "NC(=O)C1CCN(C(=O)CCCc2nnc(-c3ccccc3)o2)CC1", "Percent Effect": 6.066}
{"structure": "CCc1noc(C(C)N(C)CC(=O)Nc2ccc(C)cc2)n1", "stereo": "centres undefined", "Percent Effect": -0.3542}
{"structure": "OCC1CCCN1c1cc(NCc2ccsc2)ncn1", "stereo": "centres undefined", "Percent Effect": 11.95}
{"structure": "O=C(O)C(F)(F)F.[H][C@@]12OCCN(S(=O)(=O)C3CC3)[C@@]1([H])CC[C@H]2OCCN1CCCC1", "Percent Effect": -0.1082}
{"structure": "COc1ccc(OC)c(CNCCc2cc(F)cc3c2OCOC3)c1", "Percent Effect": -7.615}
{"structure": "Cc1[nH]c2ccc(CNc3cc(C(N)=O)ccn3)cc2c1C", "Percent Effect": -38}
{"structure": "Cn1cc(CN(C(=O)c2ccc3ncsc3c2)C2CC2)cn1", "Percent Effect": -8.415}
{"structure": "CCN(CC)CCn1c(NC(=O)c2scnc2C)nc2ccccc21", "Percent Effect": 1.398}
{"structure": "CNS(=O)(=O)c1ccc(C(=O)N2CCCC2c2ccccc2)o1", "stereo": "centres undefined", "Percent Effect": -0.4075}
{"structure": "CN(C)C(=O)c1ccc2c(c1)nc(N1CC[C@H](O)C1)n2C", "Percent Effect": 6.488}
{"structure": "Cn1c(C(=O)NS(C)(=O)=O)ccc1-c1ccccc1", "Percent Effect": -19.02}
{"structure": "CC(CN1CCOCC1)NC(=O)NCCc1ccc(Cl)s1", "stereo": "centres undefined", "Percent Effect": -14.71}
{"structure": "Cc1cncc(C2CCN(Cc3cccn3C)CC2)n1", "Percent Effect": 8.87}
{"structure": "O=C(O)C(F)(F)F.[H][C@@]12CCN(CC(=O)N(C)C)C(=O)[C@@]1([H])CN(S(C)(=O)=O)C2", "Percent Effect": 4.277}
{"structure": "CCOC1COC2(CCN(Cc3ccc(C)c(C)c3)CC2)C1.O=C(O)C(F)(F)F", "stereo": "centres undefined", "Percent Effect": -8.669}
{"structure": "Cn1nnc2c1CCN(Cc1ccncc1)C2COCC1CC1.O=C(O)C(F)(F)F.O=C(O)C(F)(F)F", "stereo": "centres undefined", "Percent Effect": 4.623}
{"structure": "CN(Cc1cscn1)C(=O)C(c1ccccc1)N1CCSCC1", "stereo": "centres undefined", "Percent Effect": -16.42}
{"structure": "CSCC(=O)Nc1ncn(Cc2cccc(Br)c2)n1", "Percent Effect": "-29.61 and -20.53"}
{"structure": "Cn1nc(CNC(=O)C2CCCC2)cc1C1CC1", "Percent Effect": 8.156}
{"structure": "O=C(O)C(F)(F)F.O=C(O)C(F)(F)F.O=C(O)C(F)(F)F.[H][C@@]12CCCO[C@]1([H])[C@H](N(C)Cc1ccco1)CN(Cc1ccncc1)C2", "Percent Effect": -3.893}
{"structure": "CCN1CCN(C(=O)NCCOc2ccc3c(c2)OCO3)CC1", "Percent Effect": -8.711}
{"structure": "CCCc1n[nH]c(C2CN(C(=O)c3ccc(C)[nH]c3=O)CCO2)n1", "stereo": "centres undefined", "Percent Effect": -5.698}
{"structure": "Cc1cccc(OCCNC(=O)CN2CCCC2Cn2cncn2)c1", "stereo": "centres undefined", "Percent Effect": -1.485}
{"structure": "CN(C)CC1(O)CCCN(Cc2ccccc2OCC(=O)N(C)C)C1", "stereo": "centres undefined", "Percent Effect": -10.53}
{"structure": "COCC1CN(CC2CC2)Cc2nn(CC3CC3)cc21.O=C(O)C(F)(F)F", "stereo": "centres undefined", "Percent Effect": -5.113}
{"structure": "Cc1cnn(CC2CCCN2Cc2nc3ccccc3nc2C)c1", "stereo": "centres undefined", "Percent Effect": -2.543}
{"structure": "[H][C@]12CCN(S(=O)(=O)C3CC3)C[C@@]1([H])OCCN(C(C)=O)C2", "Percent Effect": 5.267}
{"structure": "O=C(Nc1ccccc1)C1=CC2(CCNCC2)c2ccccc21", "Percent Effect": 8.285}
{"structure": "Cc1cccc(N2CCN(CCC(=O)NCc3ccc(C)s3)CC2)c1", "Percent Effect": 2.193}
{"structure": "Cc1nc(C(=O)N2CCCC2c2c(C)nn(C)c2Cl)ccc1C#N", "stereo": "centres undefined", "Percent Effect": 6.057}
{"structure": "Cc1cnccc1CN1CC[C@@](C)(O)[C@H](Oc2cccc(F)c2)C1", "Percent Effect": 8.703}

3 of the entries, repeated:

* CCOC1COC2(CCN(Cc3ccc(C)c(C)c3)CC2)C1.O=C(O)C(F)(F)F (centres undefined) | -8.669%
* CN(C)C(=O)c1ccc2c(c1)nc(N1CC[C@H](O)C1)n2C | 6.488%
* Cc1cccc(N2CCN(CCC(=O)NCc3ccc(C)s3)CC2)c1 | 2.193%

Source: ChEMBL document CHEMBL3988442, “University of Dundee, Small-Polar-MMV Screening Library” (2021).